Measurements as given in paper doi:10.1101/2022.01.19.476979 (bioRxiv, 2022).
These are yes or no findings as the source states them, for the method shown. In cells and extracts the contact can be indirect. Some binding calls cover weakened binding; strength is not graded here.

Sequences of proteins named here, by UniProt entry; tags and fusion partners are left off.
UniProt Q08AI8: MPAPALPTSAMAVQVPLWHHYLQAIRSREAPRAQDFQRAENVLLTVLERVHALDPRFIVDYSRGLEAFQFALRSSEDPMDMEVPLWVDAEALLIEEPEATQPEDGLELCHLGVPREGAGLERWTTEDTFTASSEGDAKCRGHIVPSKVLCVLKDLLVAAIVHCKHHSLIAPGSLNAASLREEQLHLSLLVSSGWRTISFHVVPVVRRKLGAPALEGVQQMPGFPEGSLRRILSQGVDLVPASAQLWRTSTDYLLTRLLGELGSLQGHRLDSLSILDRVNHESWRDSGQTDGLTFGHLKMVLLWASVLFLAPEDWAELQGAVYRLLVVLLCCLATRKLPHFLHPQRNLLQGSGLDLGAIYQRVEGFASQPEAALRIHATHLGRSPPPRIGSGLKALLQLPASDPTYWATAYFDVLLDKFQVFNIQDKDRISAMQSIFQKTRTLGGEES
UniProt Q92817: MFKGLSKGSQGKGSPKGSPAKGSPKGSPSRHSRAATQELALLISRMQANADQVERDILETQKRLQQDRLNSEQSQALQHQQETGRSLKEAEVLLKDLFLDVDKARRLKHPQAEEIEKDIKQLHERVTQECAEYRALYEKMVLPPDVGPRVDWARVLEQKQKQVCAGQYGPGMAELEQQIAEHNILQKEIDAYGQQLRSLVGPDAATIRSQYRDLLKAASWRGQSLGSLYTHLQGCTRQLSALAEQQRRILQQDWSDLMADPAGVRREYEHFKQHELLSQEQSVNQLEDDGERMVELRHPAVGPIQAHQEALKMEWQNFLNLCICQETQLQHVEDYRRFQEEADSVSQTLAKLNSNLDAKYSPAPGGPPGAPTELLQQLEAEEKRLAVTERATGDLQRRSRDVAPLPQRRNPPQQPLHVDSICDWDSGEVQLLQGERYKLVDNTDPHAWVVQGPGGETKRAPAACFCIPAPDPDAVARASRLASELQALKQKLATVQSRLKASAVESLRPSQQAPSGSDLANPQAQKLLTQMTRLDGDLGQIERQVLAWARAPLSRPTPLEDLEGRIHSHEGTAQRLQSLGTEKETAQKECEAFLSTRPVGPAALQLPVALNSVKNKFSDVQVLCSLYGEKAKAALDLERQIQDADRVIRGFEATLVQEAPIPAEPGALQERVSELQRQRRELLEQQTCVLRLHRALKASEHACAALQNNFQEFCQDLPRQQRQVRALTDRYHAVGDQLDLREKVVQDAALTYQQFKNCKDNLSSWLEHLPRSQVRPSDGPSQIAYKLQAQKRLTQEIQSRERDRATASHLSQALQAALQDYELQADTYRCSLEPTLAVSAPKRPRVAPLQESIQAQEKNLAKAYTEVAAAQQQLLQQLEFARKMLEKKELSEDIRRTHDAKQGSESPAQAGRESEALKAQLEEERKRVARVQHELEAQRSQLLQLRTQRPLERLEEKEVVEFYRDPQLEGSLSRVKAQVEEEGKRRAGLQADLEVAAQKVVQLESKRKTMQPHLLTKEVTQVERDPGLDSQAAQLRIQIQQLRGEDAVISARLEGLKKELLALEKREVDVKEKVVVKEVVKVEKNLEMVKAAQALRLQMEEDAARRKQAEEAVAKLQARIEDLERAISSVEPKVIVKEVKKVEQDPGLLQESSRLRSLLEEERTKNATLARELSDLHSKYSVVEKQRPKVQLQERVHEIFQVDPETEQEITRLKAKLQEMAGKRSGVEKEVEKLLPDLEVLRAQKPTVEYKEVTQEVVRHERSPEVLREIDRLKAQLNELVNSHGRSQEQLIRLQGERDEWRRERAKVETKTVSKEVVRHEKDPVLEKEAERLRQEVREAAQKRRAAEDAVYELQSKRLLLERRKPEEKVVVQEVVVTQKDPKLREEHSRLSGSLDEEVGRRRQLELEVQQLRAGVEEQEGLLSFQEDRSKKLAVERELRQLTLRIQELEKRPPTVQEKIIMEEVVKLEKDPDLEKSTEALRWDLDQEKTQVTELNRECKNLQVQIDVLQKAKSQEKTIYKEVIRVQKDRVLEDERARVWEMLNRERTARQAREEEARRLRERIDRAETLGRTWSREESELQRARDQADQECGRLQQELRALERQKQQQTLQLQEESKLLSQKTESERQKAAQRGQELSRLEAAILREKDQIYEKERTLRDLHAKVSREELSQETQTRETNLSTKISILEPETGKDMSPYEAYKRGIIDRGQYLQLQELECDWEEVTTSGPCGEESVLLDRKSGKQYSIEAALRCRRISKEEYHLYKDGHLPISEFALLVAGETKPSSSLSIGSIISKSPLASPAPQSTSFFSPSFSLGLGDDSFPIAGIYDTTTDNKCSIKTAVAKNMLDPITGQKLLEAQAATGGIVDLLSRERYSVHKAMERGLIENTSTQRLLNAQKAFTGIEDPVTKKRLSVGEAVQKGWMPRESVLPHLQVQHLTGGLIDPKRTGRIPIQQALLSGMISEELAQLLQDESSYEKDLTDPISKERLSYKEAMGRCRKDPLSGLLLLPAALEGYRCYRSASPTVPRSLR
UniProt O60437: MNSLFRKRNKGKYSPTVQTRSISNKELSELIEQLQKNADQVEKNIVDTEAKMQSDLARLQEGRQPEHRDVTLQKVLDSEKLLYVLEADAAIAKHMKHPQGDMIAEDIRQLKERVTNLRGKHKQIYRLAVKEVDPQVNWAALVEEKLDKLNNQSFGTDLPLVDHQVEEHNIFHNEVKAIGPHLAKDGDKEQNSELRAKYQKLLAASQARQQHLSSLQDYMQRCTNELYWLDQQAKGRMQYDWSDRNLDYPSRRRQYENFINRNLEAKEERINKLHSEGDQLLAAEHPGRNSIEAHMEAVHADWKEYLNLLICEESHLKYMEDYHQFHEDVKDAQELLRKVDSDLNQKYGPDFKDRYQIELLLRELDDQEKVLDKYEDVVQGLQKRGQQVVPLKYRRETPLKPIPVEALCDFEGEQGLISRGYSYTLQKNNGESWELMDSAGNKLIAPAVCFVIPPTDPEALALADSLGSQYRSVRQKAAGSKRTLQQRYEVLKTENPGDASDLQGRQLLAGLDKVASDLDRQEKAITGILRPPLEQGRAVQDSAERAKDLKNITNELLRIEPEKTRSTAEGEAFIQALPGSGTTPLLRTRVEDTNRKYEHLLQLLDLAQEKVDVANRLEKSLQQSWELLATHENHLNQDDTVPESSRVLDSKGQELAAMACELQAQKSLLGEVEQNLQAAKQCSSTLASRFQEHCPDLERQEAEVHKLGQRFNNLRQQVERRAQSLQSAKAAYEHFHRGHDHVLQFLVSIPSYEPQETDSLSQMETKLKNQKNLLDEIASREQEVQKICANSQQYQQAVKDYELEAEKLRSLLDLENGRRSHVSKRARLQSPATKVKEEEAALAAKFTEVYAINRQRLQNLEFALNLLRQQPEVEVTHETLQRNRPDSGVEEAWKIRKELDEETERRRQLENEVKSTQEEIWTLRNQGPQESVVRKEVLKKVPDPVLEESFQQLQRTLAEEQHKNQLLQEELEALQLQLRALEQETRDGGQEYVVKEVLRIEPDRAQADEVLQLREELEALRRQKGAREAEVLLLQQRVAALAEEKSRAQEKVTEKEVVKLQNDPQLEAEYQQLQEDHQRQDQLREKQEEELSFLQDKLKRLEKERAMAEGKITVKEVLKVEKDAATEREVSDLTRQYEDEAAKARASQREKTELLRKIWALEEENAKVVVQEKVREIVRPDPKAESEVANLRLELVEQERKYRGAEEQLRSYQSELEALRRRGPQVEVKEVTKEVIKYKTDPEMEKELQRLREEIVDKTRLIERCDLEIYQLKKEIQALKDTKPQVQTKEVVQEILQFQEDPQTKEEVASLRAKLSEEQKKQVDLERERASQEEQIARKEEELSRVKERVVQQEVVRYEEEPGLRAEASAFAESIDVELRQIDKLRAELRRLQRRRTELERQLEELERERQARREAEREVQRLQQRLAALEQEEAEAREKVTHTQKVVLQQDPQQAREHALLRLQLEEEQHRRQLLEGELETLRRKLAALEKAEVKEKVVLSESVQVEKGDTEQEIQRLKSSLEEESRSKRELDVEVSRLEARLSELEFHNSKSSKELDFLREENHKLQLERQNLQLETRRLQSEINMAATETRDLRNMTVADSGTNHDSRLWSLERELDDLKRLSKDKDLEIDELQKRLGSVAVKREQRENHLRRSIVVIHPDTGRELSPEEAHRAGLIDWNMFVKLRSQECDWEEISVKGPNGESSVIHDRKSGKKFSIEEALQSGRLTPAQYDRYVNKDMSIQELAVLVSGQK

Target: MAB21L4 (endogenous) (human (endogenous in human skin and skin organoids)) (UniProt Q08AI8)
Test: proximity ligation

binding | Substance
binds | envoplakin, endogenous in human skin organoids (from UniProt Q92817 1-2033)
binds | periplakin, endogenous in human skin organoids (from UniProt O60437 1-1756)
